Values from PubChem BioAssay AID686938 (Drosophila RNAi Screening Center, 2013)

Purpose: 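Knock-downs reducing store-operated calcium influx in Drosophila cells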 (primary screen)
System: Drosophila S2R+ cells
Reagent: long dsRNA against Drosophila genes, about 0.25 µg dsRNA per well, roughly 10,000 cells
Timing: 5 days of knock-down before the calcium assay
Challenge: thapsigargin (SERCA pump blocker) to empty calcium stores; entry signal taken 4 min after adding it
Detection: 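Per-well fluo-4 fluorescence in two replicates, unnormalised, measured in resting cells and 4 min after store depletion by the SERCA blocker thapsigargin; ratio of the two present in few wells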
Direction: calcium entry signal: higher = stronger calcium signal after store depletion; entry to resting ratio: higher = more calcium entry relative to resting level; resting calcium signal: higher = higher resting calcium signal
Call rule: 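Called when the plate z-score of the entry-to-rest ratio, mean of duplicates, falls below −3; wells with low overall dye signal (Fmax z below −2) or more than five off-targets excluded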
Meaning of the calls: active = strongly reduced calcium entry; inactive = no strong reduction
The deposit covers about 23,000 reagents; below is an unselected part of those that have a named target and a result. Of all reagents, 75 (0.33%) got an active call. 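Raw plate signals without normalisation; calls rest on plate z-scores that were not deposited; ratio present for only 364 wells.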 A plus sign joins genes that one reagent is predicted to hit. Not stated in the record: the dose of the treatment.

The opening 3 entries, to show the layout:
| predicted target | DRSC id | calcium entry signal, replicate 1 (fluorescence units) | calcium entry signal, replicate 2 (fluorescence units) | entry to resting ratio | resting calcium signal, replicate 1 (fluorescence units) | resting calcium signal, replicate 2 (fluorescence units) | Call |
| --- | --- | --- | --- | --- | --- | --- | --- |
| Zip102B (Zinc/iron regulated transporter-related protein 102B) | DRSC17155 | 4.56e7 | 3.21e7 | 2 | 2.32e7 | 1.59e7 | inactive |
| Mcr (Macroglobulin complement-related) | DRSC03366 | 4.54e7 | – | – | 2.67e7 | – | inactive |
| glo (glorund) | DRSC16145 | 4.87e7 | 4.26e7 | – | 1.98e7 | 1.90e7 | inactive |

Main list, repeating the preview:
| predicted target | DRSC id | calcium entry signal, replicate 1 (fluorescence units) | calcium entry signal, replicate 2 (fluorescence units) | entry to resting ratio | resting calcium signal, replicate 1 (fluorescence units) | resting calcium signal, replicate 2 (fluorescence units) | Call |
| --- | --- | --- | --- | --- | --- | --- | --- |
| Zip102B (Zinc/iron regulated transporter-related protein 102B) | DRSC17155 | 4.56e7 | 3.21e7 | 2 | 2.32e7 | 1.59e7 | inactive |
| Mcr (Macroglobulin complement-related) | DRSC03366 | 4.54e7 | – | – | 2.67e7 | – | inactive |
| glo (glorund) | DRSC16145 | 4.87e7 | 4.26e7 | – | 1.98e7 | 1.90e7 | inactive |
| sle + CG12592 | DRSC21387 | 3.99e7 | 3.38e7 | – | 2.40e7 | 1.59e7 | inactive |
| crm (cramped) | DRSC18754 | 3.33e7 | 3.83e7 | – | 1.56e7 | 1.88e7 | inactive |
| CG42588 | DRSC09820 | 2.17e7 | 2.76e7 | – | 1.17e7 | 1.31e7 | inactive |
| CG42588 | DRSC22121 | 2.24e7 | 4.74e7 | – | 1.14e7 | 2.21e7 | inactive |
| idc (identity crisis) | DRSC15680 | 4.09e7 | 3.32e7 | – | 1.80e7 | 1.45e7 | inactive |
| CG32719 | DRSC17525 | 2.79e7 | 3.78e7 | – | 1.19e7 | 1.64e7 | inactive |
| Or22b (Odorant receptor 22b) | DRSC00765 | 3.51e7 | 5.46e7 | – | 1.75e7 | 2.09e7 | inactive |
| TotE (Turandot E) | DRSC21355 | 3.54e7 | 3.39e7 | – | 1.90e7 | 1.67e7 | inactive |
| Sox15 (Sox box protein 15) | DRSC07555 | 3.71e7 | 2.95e7 | – | 2.04e7 | 1.53e7 | inactive |
| AGBE (1,4-Alpha-Glucan Branching Enzyme) | DRSC06861 | 4.79e7 | 4.11e7 | – | 2.41e7 | 2.03e7 | inactive |
| bbx + waw | DRSC20575 | 4.54e7 | 4.92e7 | – | 2.07e7 | 2.28e7 | inactive |
| bbx + waw | DRSC20589 | 4.69e7 | 3.67e7 | – | 1.97e7 | 1.55e7 | inactive |
| tinc (tincar) | DRSC14798 | 2.48e7 | 2.98e7 | – | 4.01e7 | 1.33e7 | inactive |
| tinc (tincar) | DRSC14799 | 3.38e7 | 3.16e7 | – | 3.68e7 | 1.48e7 | inactive |
| tinc (tincar) | DRSC16308 | 3.89e7 | 3.63e7 | – | 3.57e7 | 1.62e7 | inactive |
| tinc (tincar) | DRSC16309 | 3.18e7 | 2.70e7 | – | 3.80e7 | 1.20e7 | inactive |
| CG14641 | DRSC12227 | 3.38e7 | 4.15e7 | – | 1.44e7 | 2.57e7 | inactive |
| Poxn (Pox neuro) | DRSC05589 | 1.90e7 | 4.64e7 | – | 1.29e7 | 4.08e7 | inactive |
| Poxn (Pox neuro) | DRSC07512 | 3.79e7 | 3.82e7 | – | 1.55e7 | 1.84e7 | inactive |
| CG11269 | DRSC04094 | 4.21e7 | 5.53e7 | – | 2.06e7 | 2.33e7 | inactive |
| Usp32 (Ubiquitin specific protease 32) | DRSC10979 | 3.54e7 | 5.49e7 | – | 1.67e7 | 2.33e7 | inactive |
| CG11498 | DRSC14315 | 3.21e7 | 4.26e7 | – | 1.78e7 | 1.90e7 | inactive |
| Dtd (D-aminoacyl-tRNA deacylase) | DRSC15362 | 3.60e7 | 3.53e7 | – | 1.54e7 | 1.68e7 | inactive |
| pho (pleiohomeotic) | DRSC17219 | 2.77e7 | 5.00e7 | 2.3 | 1.22e7 | 1.92e7 | inactive |
| fbp (fructose-1,6-bisphosphatase) | DRSC02077 | 4.87e7 | – | – | 2.31e7 | – | inactive |
| LysD + LysC (retired record) | DRSC08674 | 2.76e7 | 3.14e7 | – | 1.41e7 | 1.51e7 | inactive |
| LysD + LysC (retired record) | DRSC22743 | 4.29e7 | 4.00e7 | – | 2.30e7 | 1.90e7 | inactive |
| CAH7 (Carbonic anhydrase 7) | DRSC15524 | 2.53e7 | 2.18e7 | – | 1.35e7 | 1.22e7 | inactive |
| Ak2 (Adenylate kinase 2) | DRSC04043 | 2.42e7 | 3.12e7 | – | 1.46e7 | 1.64e7 | inactive |
| Vha16-2 (Vacuolar H[+] ATPase 16kD subunit 2) | DRSC10873 | 2.56e7 | 3.95e7 | – | 1.50e7 | 1.66e7 | inactive |
| CG8860 | DRSC07291 | 2.42e7 | 2.89e7 | – | 1.49e7 | 1.63e7 | inactive |
| dpp (decapentaplegic) | DRSC00118 | 2.63e7 | 3.42e7 | – | 1.47e7 | 1.50e7 | inactive |
| dpp (decapentaplegic) | DRSC00121 | 3.19e7 | 3.63e7 | – | 1.64e7 | 1.61e7 | inactive |
| dpp (decapentaplegic) | DRSC00813 | 3.93e7 | 4.41e7 | – | 1.77e7 | 2.00e7 | inactive |
| CG3982 | DRSC10394 | 2.32e7 | 2.81e7 | – | 1.24e7 | 1.33e7 | inactive |
| CG3982 | DRSC23139 | 3.70e7 | 3.48e7 | – | 2.01e7 | 1.74e7 | inactive |
| Osi15 (Osiris 15) | DRSC12178 | 3.36e7 | 1.61e7 | – | 1.56e7 | 8.48e6 | inactive |
| CG11737 | DRSC14364 | 4.51e7 | 3.79e7 | – | 2.22e7 | 1.75e7 | inactive |
| CG4119 | DRSC17741 | 2.52e7 | 3.25e7 | – | 1.34e7 | 1.66e7 | inactive |
| mRpL40 (mitochondrial ribosomal protein L40) | DRSC15749 | 3.79e7 | 3.22e7 | – | 1.87e7 | 1.63e7 | inactive |
| S6kII (Ribosomal protein S6 kinase II) | DRSC20645 | 3.42e7 | 3.75e7 | – | 1.88e7 | 1.61e7 | inactive |
| sip2 (septin interacting protein 2) | DRSC03154 | 3.52e7 | 3.72e7 | – | 1.75e7 | 1.73e7 | inactive |
| sog (short gastrulation) | DRSC20379 | 2.32e7 | 2.90e7 | – | 1.38e7 | 1.43e7 | inactive |
| Jheh2 (Juvenile hormone epoxide hydrolase 2) | DRSC06530 | 5.11e7 | 3.63e7 | – | 2.03e7 | 1.95e7 | inactive |
| CG13950 | DRSC00368 | 2.79e7 | 2.75e7 | – | 1.40e7 | 1.31e7 | inactive |
| mdlc (midlife crisis) | DRSC15690 | 2.68e7 | 2.55e7 | – | 1.42e7 | 1.24e7 | inactive |
| brv1 (brivido-1) | DRSC11076 | 2.87e7 | 4.42e7 | – | 1.43e7 | 2.01e7 | inactive |
| ninaE (neither inactivation nor afterpotential E) | DRSC17014 | 3.17e7 | 4.20e7 | – | 5.20e7 | 1.91e7 | inactive |
| CAH1 + Adat1 | DRSC02009 | 5.64e7 | – | – | 2.48e7 | – | inactive |
| beat-IIb (beaten path IIb) | DRSC13219 | 9.17e7 | 2.36e7 | – | 3.67e7 | 1.20e7 | inactive |
| beat-IIb (beaten path IIb) | DRSC14816 | 3.88e7 | 5.65e7 | – | 1.76e7 | 6.39e7 | inactive |
| beat-IIb (beaten path IIb) | DRSC15546 | 3.95e7 | 4.76e7 | – | 1.85e7 | 6.59e7 | inactive |
| rho-6 (rhomboid-6) | DRSC02588 | 3.99e7 | 2.50e7 | – | 1.72e7 | 1.23e7 | inactive |
| lds (lodestar) | DRSC16988 | 5.09e7 | 3.30e7 | – | 2.17e7 | 1.56e7 | inactive |
| CG18563 | DRSC02676 | 3.83e7 | 2.64e7 | – | 1.56e7 | 1.23e7 | inactive |
